The text below walks through data of patent US20180153203A1, “(5R)-(ß-D-GLUCOPYRANOSYLOXY)-1,5-DIHYDRO-2H-PYRROL-2-ONE AS UMAMI MOLECULE” (priority 2015, published 2018).

Common to all, as to type: in vivo, human
In data set [1] the test system is sensory panel of 5 to 8 trained persons. Kind of data set: Sensory panel tasting of umami intensity in water. Particulars: tasters' description. How it is done: (§1) The sensory tests were performed in a sensory panel room at 20-25° C. The sensory panel consisted of 5 to 8 trained persons. The technical tasting was measured versus a control sample. Tasters were asked to judge the different products according to umami intensity on a 3-point scale (no umami, umami and intense umami). Additionally the tasters were asked to objectively describe the prototype with comments.
The stereoisomers have been tested to umami intensity as described in example 7.

The test system is the same in data set [2]. In words: Sensory panel tasting in 0.2% sodium chloride and 0.04% sugar. Particulars: C 200 mg/l, tasters' description. How it is done: as §1
Data set [3] has the same test system. Kind of data set: Sensory panel tasting in 0.2% sodium chloride and 0.04% sugar and 0.015% IMP + GMP. Particulars: 0.2% sodium chloride, tasters' description. How it is done: as §1
The test system is the same in data set [4]. Kind of data set: Sensory panel tasting in 0.2% sodium chloride and 0.04% sugar and 0.08% MSG. Particulars: 0.2% sodium chloride, tasters' description. How it is done: as §1

Regarding `O=C1C=C[C@@H](O[C@H]2O[C@H](CO)[C@@H](O)[C@H](O)[C@H]2O)N1` [alpha-R, (5R)-(α-D-glucopyranosyloxy)-1,5-dihydro-2H-pyrrol-2-one], the comments entry in data set [1] (C 200 mg/l) is “Bitter, astringent”; in data set [1] (C 400 mg/l), “Very bitter, chemical”; in data set [1] (C 800 mg/l), “chemical”.
Turning to `O=C1C=C[C@H](O[C@H]2O[C@H](CO)[C@@H](O)[C@H](O)[C@H]2O)N1` [alpha-S, (5S)-(α-D-glucopyranosyloxy)-1,5-dihydro-2H-pyrrol-2-one], the comments entry was “chemical, astringent” in data set [1] (C 100 mg/l) and “Metallic, bitter” in data set [1] (C 500 mg/l).
As to `O=C1C=C[C@H](O[C@@H]2O[C@H](CO)[C@@H](O)[C@H](O)[C@H]2O)N1` [beta-S, (5S)-(β-D-glucopyranosyloxy)-1,5-dihydro-2H-pyrrol-2-one], the comments entry in data set [1] (C 200 mg/l) is on record as “bitter”; in data set [1] (C 500 mg/l), “Pungent, desinfectant”.
On to “(5R)-(β-D-glucopyranosyloxy)-1,5-dihydro-2H-pyrrol-2-one”, for which the comments entry is reported as “Sweet, watery” in data set [2]; “Mouthfulness, round” in data set [1] (C 100 mg/l); “roundness” in data set [1] (C 250 mg/l); “Umami, roundness” in data set [1] (C 500 mg/l); “Broth-like, salivating” in data set [3] (C 200 mg/l); “Round, different to” in data set [3] (C 500 mg/l). Moreover, the comments result in data set [4] (C 200 mg/l) is “Chicken-like, round”; in data set [4] (C 500 mg/l), “Round, mouthful,”.
